## Screening data, single-dose tests

Sequences of proteins named here, by UniProt entry; tags and fusion partners are left off. Residues count along the entry.
UniProt P9WPC5, whole entry: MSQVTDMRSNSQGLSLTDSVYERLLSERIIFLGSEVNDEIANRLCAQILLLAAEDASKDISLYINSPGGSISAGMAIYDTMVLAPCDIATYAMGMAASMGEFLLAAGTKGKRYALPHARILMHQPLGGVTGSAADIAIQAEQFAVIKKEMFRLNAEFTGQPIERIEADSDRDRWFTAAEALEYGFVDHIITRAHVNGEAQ
UniProt P9WPC3, whole entry partner: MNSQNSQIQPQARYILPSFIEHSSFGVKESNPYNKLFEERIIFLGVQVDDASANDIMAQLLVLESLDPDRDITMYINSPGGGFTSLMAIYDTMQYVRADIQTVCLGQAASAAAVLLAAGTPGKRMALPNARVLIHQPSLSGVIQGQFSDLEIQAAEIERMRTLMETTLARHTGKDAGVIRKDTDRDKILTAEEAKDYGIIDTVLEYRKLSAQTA
UniProt A4I591, 1-473: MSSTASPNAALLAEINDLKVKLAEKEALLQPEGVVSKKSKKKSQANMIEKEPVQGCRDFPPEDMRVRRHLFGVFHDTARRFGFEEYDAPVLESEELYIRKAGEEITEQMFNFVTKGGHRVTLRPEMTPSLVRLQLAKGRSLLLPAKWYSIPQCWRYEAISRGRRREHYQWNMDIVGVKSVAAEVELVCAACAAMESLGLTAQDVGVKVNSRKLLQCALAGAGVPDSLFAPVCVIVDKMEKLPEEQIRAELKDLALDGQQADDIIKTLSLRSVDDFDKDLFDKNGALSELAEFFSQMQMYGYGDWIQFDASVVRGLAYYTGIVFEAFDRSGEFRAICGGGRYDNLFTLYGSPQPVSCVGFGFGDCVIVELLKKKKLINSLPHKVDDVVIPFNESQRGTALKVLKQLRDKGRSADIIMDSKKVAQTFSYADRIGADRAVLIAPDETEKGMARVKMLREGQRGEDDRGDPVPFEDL

The values are deposited in ChEMBL (CHEMBL3988442, “University of Dundee, Small-Polar-MMV Screening Library” (2021)).

A: 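ClpP1P2, Mycobacterium tuberculosis (UniProt P9WPC5 and UniProt P9WPC3). Protease assay of ClpP1P2, read by the AMC dye that it sets free. Compounds at 50 µM. Direction is inferred from only a few compounds that gave an IC50; most scored high, so higher reads as stronger inhibition. Most other retested compounds had strongly negative values. About 69,000 compounds were tested under these conditions; 0.015% (about 10) showed 50% or more at least once.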
B: 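Enzyme assay of histidyl-tRNA synthetase; the read-out is not stated. Target: Histidine-tRNA ligase, Leishmania infantum (UniProt A4I591). Tested at 30 µM. Direction is inferred from retests: higher values go with stronger inhibition. The assay is labelled LdHisRS but filed under L. infantum. About 69,000 compounds were tested under these conditions; 0.6% (about 410) showed 50% or more at least once.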

Values are the deposited “Percent Effect”, in %.
The controls that fix the scale are not given in the record; negative values are as filed.
The compounds are a random part of those screened.

With CCC(C)(NCC(=O)NC(=O)NC)c1nc(C)cs1 (stereo not shown) the screen gave A: -10.48%; B: 6.557%.
With Cc1cc(C)cc(N2CCN(C(=O)C3CN(C)C(=O)N3)CC2=O)c1 (stereo not shown) the screen gave A: 4.301%; B: 14.29%.
With Cn1cnnc1CN1CCC2(CCC(=O)N(Cc3ccccn3)C2)CC1 the screen gave A: -1.101%; B: 17.5%.
With CC(C)c1noc(C(C)N2CCN(Cc3nnc(C4CC4)o3)CC2)n1 (stereo not shown) the screen gave A: -10.97%; B: 13.79%.
With CN(Cc1noc2c1CCCC2)C(=O)Nc1cccc(S(N)(=O)=O)c1 the screen gave A: 5.619%; B: 13.11%.
With COCCN(Cc1ccccn1)C(=O)CC1OCCc2ccsc21 (stereo not shown) the screen gave A: -6.115%; B: 5.128%.
With CCC(=O)N1CCC(c2nc(N3CCCCC3)ncc2S(C)(=O)=O)CC1 the screen gave A: -20.9%; B: 5.369%.
With CCOCCCNC(=O)c1cc(C)nc(N2CCCCC2)n1 the screen gave A: 4.015%; B: 12.07%.
With Cc1nn(C)c(C)c1C1CCCN1Cc1nc(-c2ccccn2)no1 (stereo not shown) the screen gave A: -15.29%; B: 7.143%.
With O=C(OC1CCC1)c1ncccc1OCC(F)(F)F the screen gave A: 1.99%; B: 14.53%.
With Cc1cc(NC(=O)CN2CCN(c3nccs3)C(C)C2)on1 (stereo not shown) the screen gave A: -15.16%; B: 3.571%.
With CC(C)c1nnc2sc(CC3CCS(=O)(=O)CC3)nn12 the screen gave A: 3.228%; B: 0%.
With CN(C)C(=O)C1CCCN1c1ccnc2ccsc12 (stereo not shown) the screen gave A: -6.982%; B: 0%.
With CN(C)CCCNC(=O)c1ccc(N(C)S(C)(=O)=O)cc1Cl the screen gave A: -5.328%; B: 3.529%.
With CN1CCN(c2ncccn2)CC12CCC(=O)N(CC1CC1)CC2 (stereo not shown) the screen gave A: -9.885%; B: 9.677%.
With O=C(Nc1ccc(-c2csnn2)cc1)N1CC[C@H](O)C1 the screen gave A: -5.455%; B: 12.5%.
With CC(C)c1cc(C2CCN(C(=O)Cn3nc4ccccc4n3)CC2)[nH]n1 the screen gave A: -1.607%; B: 10%.
With Cc1cc2c(cc1NC(=O)NCC(C)C)OCO2 the screen gave A: 1.901%; B: 15.05%.
With Cc1cccc(CN2CCc3nnc(CN4CCCC4=O)n3CC2)n1 the screen gave A: 0.05211%; B: 24.39%.
With CN1C[C@H](O)[C@]2(CCN(C(=O)COc3ccccc3)C2)S1(=O)=O the screen gave A: -3.053%; B: 10.31%.
With O=C(NC1CC1)N1CCc2ncnc(-c3ccncc3)c2CC1 the screen gave A: 15.75%; B: 3.774%.
With Cc1cccc(C(C)CNC(=O)N2CCC3(C2)OCCO3)c1 (stereo not shown) the screen gave A: -15.46%; B: 22.08%.
With Cc1cccc(C)c1OCC(C)Nc1nc(N)nc2c1CCNC2 (stereo not shown) the screen gave A: 4.143%; B: 10.42%.
With CN1CC2(CCN(Cc3ccoc3)CC2)COc2ccccc2S1(=O)=O the screen gave A: -10.18%; B: 18.87%.
With COc1ncccc1C(=O)N1CC[C@H]2C[C@@H](c3noc(C)n3)O[C@@H]2C1 the screen gave A: -6.891%; B: 46.15%.
With CC(=O)N[C@@H](CC(C)C)C(=O)N1CCC(n2cc(C(C)(C)N)nn2)CC1 the screen gave A: -1.972%; B: 18.67%.
With CCS(=O)(=O)N1CCC(OCCCc2ccccc2)C1 (stereo not shown) the screen gave A: -0.7554%; B: 12.61%.
With Cc1ccc(C(=O)N2CCOc3nc(C)ccc32)c(F)c1 the screen gave A: -5.954%; B: 17.2%.
With CCOC(=O)Cn1c(=O)nc(N)c2c(-c3ccc(OC)cc3)csc21 the screen gave A: 2.219%; B: 15.79%.